Literature values, collected in patent US11066384B2, “Crystalline forms of ARN-509, preparation method and use thereof” (Crystal Pharmaceutical (Suzhou) Co., Ltd., priority 2018, dated 2021).
At least one compound was matched to its structure with a doubt left.

System: prostate cancer
Conditions: clinical trials; cited from earlier work

For `C[C@]12CC[C@H](O)CC1=CC[C@@H]1[C@@H]2CC[C@]2(C)C(c3cccnc3)=CC[C@@H]12` [Abiraterone], the “Share of patients in whom the drug is effective” value is listed as “about 70%”.
